For 21 molecules, binding results are on record in patent publication US20230322941A1.

Amino acid sequences for entries named in this document (tags omitted). A change or cut given only in a name is not applied to a line headed by its entry.
UniProt P25942: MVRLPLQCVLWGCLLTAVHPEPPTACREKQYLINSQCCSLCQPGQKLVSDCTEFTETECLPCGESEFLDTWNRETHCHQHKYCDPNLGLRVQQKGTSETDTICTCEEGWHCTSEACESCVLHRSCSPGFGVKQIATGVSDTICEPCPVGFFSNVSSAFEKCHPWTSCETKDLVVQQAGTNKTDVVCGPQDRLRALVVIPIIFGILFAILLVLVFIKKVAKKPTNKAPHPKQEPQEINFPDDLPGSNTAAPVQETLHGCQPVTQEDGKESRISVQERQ

The assay has as its target human-CD40 monomer (human) (UniProt P25942). Put plainly: SPR 2 pt screen.

These are yes or no findings as the source states them, for the method shown. Some binding calls cover weakened binding; strength is not graded here.

B1: humanized Y1238 hz1 (hz-HC1/hz-LC1) (antibody, IgG1, V domains shown)
VH: QVQLVQSGAEVKKPGASVKVSCKASGYAFTNYLIEWVRQAPGQGLEWMGVINPGSGGTNYNEKFKGRVTMTRDTSISTAYMELSRLRSDDTAVYYCARSQLGRRFDYWGQGTLVTVSS
VL: DIQMTQSPSSLSASVGDRVTITCKASQDVRTGVAWYQQKPGKAPKLLIYSASYRNTGVPSRFSGSGSGTDFTFTISSLQPEDIATYYCQQHYSPPYTFGGGTKVEIK
As for B1, the binding result is “binds”.

B2: humanized Y1238 hz26 (hz-HC6/hz-LC1) (antibody, IgG1, V domains shown)
VH: QVQLVQSGAEVKKPGASVKVSCKASGYAFTNYLIEWVRQRPGQGLEWMGVINPGSGGTNYNEKFKGRVTLTADKSISTAYMELSRLRSDDTAVYYCARSQLGRRFDYWGQGTLVTVSS
VL: DIQMTQSPSSLSASVGDRVTITCKASQDVRTGVAWYQQKPGKAPKLLIYSASYRNTGVPSRFSGSGSGTDFTFTISSLQPEDIATYYCQQHYSPPYTFGGGTKVEIK
Take B2: the binding entry is listed as “binds”.

B3: humanized Y1238 hz17 (hz-HC4/hz-LC2) (antibody, IgG1, V domains shown)
VH: QVQLVQSGAEVKKPGASVKVSCKASGYAFTNYLIEWVRQAPGQGLEWMGVINPGSGGTNYNEKFKGRVTMTADKSISTAYMELSRLRSDDTAVYYCARSQLGRRFDYWGQGTLVTVSS
VL: DIQMTQSPSSLSASVGDRVTITCKASQDVRTGVAWYQQKPGKAPKLLIYSASYRNTGVPSRFSGSRSGTDFTFTISSLQPEDIATYYCQQHYSPPYTFGGGTKVEIK
Take B3: the binding entry was “binds”.

B4: humanized Y1238 hz7 (hz-HC2/hz-LC2) (antibody, IgG1, V domains shown)
VH: QVQLVQSGAEVKKPGASVKVSCKASGYAFTNYLIEWVRQAPGQGLEWMGVINPGSGGTNYNEKFKGRVTMTADTSISTAYMELSRLRSDDTAVYYCARSQLGRRFDYWGQGTLVTVSS
VL: DIQMTQSPSSLSASVGDRVTITCKASQDVRTGVAWYQQKPGKAPKLLIYSASYRNTGVPSRFSGSRSGTDFTFTISSLQPEDIATYYCQQHYSPPYTFGGGTKVEIK
Regarding B4, the binding entry is recorded as “binds”.

B5: humanized Y1238 hz19 (hz-HC4/hz-LC4) (antibody, IgG1, V domains shown)
VH: QVQLVQSGAEVKKPGASVKVSCKASGYAFTNYLIEWVRQAPGQGLEWMGVINPGSGGTNYNEKFKGRVTMTADKSISTAYMELSRLRSDDTAVYYCARSQLGRRFDYWGQGTLVTVSS
VL: DIQMTQSPSSLSASVGDRVTITCKASQDVRTGVAWYQQKPGQSPKLLIYSASYRNTGVPSRFSGSRSGTDFTFTISSLQAEDIAVYYCQQHYSPPYTFGGGTKVEIK
For the molecule B5, the binding entry was “binds”.

B6: humanized Y1238 hz10 (hz-HC2/hz-LC5) (antibody, IgG1, V domains shown)
VH: QVQLVQSGAEVKKPGASVKVSCKASGYAFTNYLIEWVRQAPGQGLEWMGVINPGSGGTNYNEKFKGRVTMTADTSISTAYMELSRLRSDDTAVYYCARSQLGRRFDYWGQGTLVTVSS
VL: DIQMTQSPSSLSASVGDRVTITCKASQDVRTGVAWYQQKPGQAPKLLIYSASYRNTGVPSRFSGSRSGTDFTFTISSLQPEDIAVYYCQQHYSPPYTFGGGTKVEIK
Consider B6, for which the binding entry is on record as “binds”.

B7: humanized Y1238 hz9 (hz-HC2/hz-LC4) (antibody, IgG1, V domains shown)
VH: QVQLVQSGAEVKKPGASVKVSCKASGYAFTNYLIEWVRQAPGQGLEWMGVINPGSGGTNYNEKFKGRVTMTADTSISTAYMELSRLRSDDTAVYYCARSQLGRRFDYWGQGTLVTVSS
VL: DIQMTQSPSSLSASVGDRVTITCKASQDVRTGVAWYQQKPGQSPKLLIYSASYRNTGVPSRFSGSRSGTDFTFTISSLQAEDIAVYYCQQHYSPPYTFGGGTKVEIK
For B7, the binding result is “binds”.

B8: humanized Y1238 hz4 (hz-HC1/hz-LC4) (antibody, IgG1, V domains shown)
VH: QVQLVQSGAEVKKPGASVKVSCKASGYAFTNYLIEWVRQAPGQGLEWMGVINPGSGGTNYNEKFKGRVTMTRDTSISTAYMELSRLRSDDTAVYYCARSQLGRRFDYWGQGTLVTVSS
VL: DIQMTQSPSSLSASVGDRVTITCKASQDVRTGVAWYQQKPGQSPKLLIYSASYRNTGVPSRFSGSRSGTDFTFTISSLQAEDIAVYYCQQHYSPPYTFGGGTKVEIK
B8: the binding result was “binds”.

B9: humanized Y1238 hz21 (hz-HC5/hz-LC1) (antibody, IgG1, V domains shown)
VH: QVQLVQSGAEVKKPGASVKVSCKASGYAFTNYLIEWVRQRPGQGLEWMGVINPGSGGTNYNEKFKGRVTMTADKSISTAYMELSRLRSDDTAVYYCARSQLGRRFDYWGQGTLVTVSS
VL: DIQMTQSPSSLSASVGDRVTITCKASQDVRTGVAWYQQKPGKAPKLLIYSASYRNTGVPSRFSGSGSGTDFTFTISSLQPEDIATYYCQQHYSPPYTFGGGTKVEIK
For the molecule B9, the binding entry was “binds”.

B10: humanized Y1238 hz18 (hz-HC4/hz-LC3) (antibody, IgG1, V domains shown)
VH: QVQLVQSGAEVKKPGASVKVSCKASGYAFTNYLIEWVRQAPGQGLEWMGVINPGSGGTNYNEKFKGRVTMTADKSISTAYMELSRLRSDDTAVYYCARSQLGRRFDYWGQGTLVTVSS
VL: DIQMTQSPSSLSASVGDRVTITCKASQDVRTGVAWYQQKPGQSPKLLIYSASYRNTGVPSRFSGSRSGTDFTFTISSLQPEDIAVYYCQQHYSPPYTFGGGTKVEIK
On to B10, for which the binding entry is recorded as “binds”.

B11: humanized Y1238 hz25 (hz-HC5/hz-LC5) (antibody, IgG1, V domains shown)
VH: QVQLVQSGAEVKKPGASVKVSCKASGYAFTNYLIEWVRQRPGQGLEWMGVINPGSGGTNYNEKFKGRVTMTADKSISTAYMELSRLRSDDTAVYYCARSQLGRRFDYWGQGTLVTVSS
VL: DIQMTQSPSSLSASVGDRVTITCKASQDVRTGVAWYQQKPGQAPKLLIYSASYRNTGVPSRFSGSRSGTDFTFTISSLQPEDIAVYYCQQHYSPPYTFGGGTKVEIK
As for B11, the binding result is reported as “binds”.

B12: humanized Y1238 hz8 (hz-HC2/hz-LC3) (antibody, IgG1, V domains shown)
VH: QVQLVQSGAEVKKPGASVKVSCKASGYAFTNYLIEWVRQAPGQGLEWMGVINPGSGGTNYNEKFKGRVTMTADTSISTAYMELSRLRSDDTAVYYCARSQLGRRFDYWGQGTLVTVSS
VL: DIQMTQSPSSLSASVGDRVTITCKASQDVRTGVAWYQQKPGQSPKLLIYSASYRNTGVPSRFSGSRSGTDFTFTISSLQPEDIAVYYCQQHYSPPYTFGGGTKVEIK
As to B12, the binding result is listed as “binds”.

B13: humanized Y1238 hz24 (hz-HC5/hz-LC4) (antibody, IgG1, V domains shown)
VH: QVQLVQSGAEVKKPGASVKVSCKASGYAFTNYLIEWVRQRPGQGLEWMGVINPGSGGTNYNEKFKGRVTMTADKSISTAYMELSRLRSDDTAVYYCARSQLGRRFDYWGQGTLVTVSS
VL: DIQMTQSPSSLSASVGDRVTITCKASQDVRTGVAWYQQKPGQSPKLLIYSASYRNTGVPSRFSGSRSGTDFTFTISSLQAEDIAVYYCQQHYSPPYTFGGGTKVEIK
In the case of B13, the binding entry was “binds”.

B14: humanized Y1238 hz22 (hz-HC5/hz-LC2) (antibody, IgG1, V domains shown)
VH: QVQLVQSGAEVKKPGASVKVSCKASGYAFTNYLIEWVRQRPGQGLEWMGVINPGSGGTNYNEKFKGRVTMTADKSISTAYMELSRLRSDDTAVYYCARSQLGRRFDYWGQGTLVTVSS
VL: DIQMTQSPSSLSASVGDRVTITCKASQDVRTGVAWYQQKPGKAPKLLIYSASYRNTGVPSRFSGSRSGTDFTFTISSLQPEDIATYYCQQHYSPPYTFGGGTKVEIK
As to B14, the binding result is “binds”.

B15: humanized Y1238 hz2 (hz-HC1/hz-LC2) (antibody, IgG1, V domains shown)
VH: QVQLVQSGAEVKKPGASVKVSCKASGYAFTNYLIEWVRQAPGQGLEWMGVINPGSGGTNYNEKFKGRVTMTRDTSISTAYMELSRLRSDDTAVYYCARSQLGRRFDYWGQGTLVTVSS
VL: DIQMTQSPSSLSASVGDRVTITCKASQDVRTGVAWYQQKPGKAPKLLIYSASYRNTGVPSRFSGSRSGTDFTFTISSLQPEDIATYYCQQHYSPPYTFGGGTKVEIK
In the case of B15, the binding result is recorded as “binds”.

B16: humanized Y1238 hz3 (hz-HC1/hz-LC3) (antibody, IgG1, V domains shown)
VH: QVQLVQSGAEVKKPGASVKVSCKASGYAFTNYLIEWVRQAPGQGLEWMGVINPGSGGTNYNEKFKGRVTMTRDTSISTAYMELSRLRSDDTAVYYCARSQLGRRFDYWGQGTLVTVSS
VL: DIQMTQSPSSLSASVGDRVTITCKASQDVRTGVAWYQQKPGQSPKLLIYSASYRNTGVPSRFSGSRSGTDFTFTISSLQPEDIAVYYCQQHYSPPYTFGGGTKVEIK
For the molecule B16, the binding result was “binds”.

B17: humanized Y1238 hz5 (hz-HC1/hz-LC5) (antibody, IgG1, V domains shown)
VH: QVQLVQSGAEVKKPGASVKVSCKASGYAFTNYLIEWVRQAPGQGLEWMGVINPGSGGTNYNEKFKGRVTMTRDTSISTAYMELSRLRSDDTAVYYCARSQLGRRFDYWGQGTLVTVSS
VL: DIQMTQSPSSLSASVGDRVTITCKASQDVRTGVAWYQQKPGQAPKLLIYSASYRNTGVPSRFSGSRSGTDFTFTISSLQPEDIAVYYCQQHYSPPYTFGGGTKVEIK
For B17, the binding result is listed as “binds”.

B18: humanized Y1238 hz16 (hz-HC4/hz-LC1) (antibody, IgG1, V domains shown)
VH: QVQLVQSGAEVKKPGASVKVSCKASGYAFTNYLIEWVRQAPGQGLEWMGVINPGSGGTNYNEKFKGRVTMTADKSISTAYMELSRLRSDDTAVYYCARSQLGRRFDYWGQGTLVTVSS
VL: DIQMTQSPSSLSASVGDRVTITCKASQDVRTGVAWYQQKPGKAPKLLIYSASYRNTGVPSRFSGSGSGTDFTFTISSLQPEDIATYYCQQHYSPPYTFGGGTKVEIK
As to B18, the binding result was “binds”.

B19: humanized Y1238 hz23 (hz-HC5/hz-LC3) (antibody, IgG1, V domains shown)
VH: QVQLVQSGAEVKKPGASVKVSCKASGYAFTNYLIEWVRQRPGQGLEWMGVINPGSGGTNYNEKFKGRVTMTADKSISTAYMELSRLRSDDTAVYYCARSQLGRRFDYWGQGTLVTVSS
VL: DIQMTQSPSSLSASVGDRVTITCKASQDVRTGVAWYQQKPGQSPKLLIYSASYRNTGVPSRFSGSRSGTDFTFTISSLQPEDIAVYYCQQHYSPPYTFGGGTKVEIK
For the molecule B19, the binding entry is listed as “binds”.

B20: humanized Y1238 hz6 (hz-HC2/hz-LC1) (antibody, IgG1, V domains shown)
VH: QVQLVQSGAEVKKPGASVKVSCKASGYAFTNYLIEWVRQAPGQGLEWMGVINPGSGGTNYNEKFKGRVTMTADTSISTAYMELSRLRSDDTAVYYCARSQLGRRFDYWGQGTLVTVSS
VL: DIQMTQSPSSLSASVGDRVTITCKASQDVRTGVAWYQQKPGKAPKLLIYSASYRNTGVPSRFSGSGSGTDFTFTISSLQPEDIATYYCQQHYSPPYTFGGGTKVEIK
B20: the binding entry is reported as “binds”.

B21: humanized Y1238 hz20 (hz-HC4/hz-LC5) (antibody, IgG1, V domains shown)
VH: QVQLVQSGAEVKKPGASVKVSCKASGYAFTNYLIEWVRQAPGQGLEWMGVINPGSGGTNYNEKFKGRVTMTADKSISTAYMELSRLRSDDTAVYYCARSQLGRRFDYWGQGTLVTVSS
VL: DIQMTQSPSSLSASVGDRVTITCKASQDVRTGVAWYQQKPGQAPKLLIYSASYRNTGVPSRFSGSRSGTDFTFTISSLQPEDIAVYYCQQHYSPPYTFGGGTKVEIK
With B21, the binding entry is “binds”.
